Record: PubChem BioAssay AID686937 (Drosophila RNAi Screening Center, 2013)

Screen: 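Genes whose loss weakens secretory pathway function in fly cells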 (primary screen)
Cell system: Drosophila S2 cells expressing secreted horseradish peroxidase
Reagent: long dsRNA against Drosophila genes
Timing: about 5.5 days (5 days dsRNA, then 12 h reporter induction)
Conditions: reporter expression induced after 5 days of dsRNA, read 12 h later; inducer not stated
Measured: 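After 5 days of dsRNA and 12 h of reporter induction, medium peroxidase read by chemiluminescence and scored as per-plate z-score; higher values mean more reporter released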
Reading the numbers: z-score: higher = more reporter secreted into medium
The deposit covers about 23,000 reagents; shown is an unselected part of those that have a named target and a result. 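Reduced-secretion tags in replicate 1 do not always agree with the z-scores; no criterion for assigning the tags was given.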 Names joined by + are all predicted targets of the reagent. Reagent sequences are not shown. Not stated in the record: the amount of reagent.

no.	Target gene	PubChem SID	z-score, replicate 1	z-score, replicate 2	z-score, replicate 3	z-score, replicate 4	phenotype, replicate 1
1	GatC + PolG2	SID104183104	0.08	0.19			
2	Ir10a (Ionotropic receptor 10a)	SID104198683	0.57	-0.12			
3	Ir10a (Ionotropic receptor 10a)	SID104199270	0.4	0.59			
4	Ir10a (Ionotropic receptor 10a)	SID104199271	0.4	0.55			
5	Acsx1R (Acyl-CoA synthetase X1 R)	SID104194131	0.34	0.51			
6	CG18302	SID104182455	0.14	-0.06			
7	Ude (Uracil-DNA degrading factor)	SID104195116	0.43	0.42			
8	CG7423	SID104199836	0.64	0.38			
9	Nadk2 (NAD kinase 2, mitochondrial)	SID104186864	0.23	0.27			
10	stan (starry night)	SID104185026	-3.41	-3.52			reduced secretion
11	stan (starry night)	SID104187489	0.31	0.25			
12	CG42671	SID104188885	-0.88	0.41			
13	CG42671	SID104190113	0.57	0.43			
14	CG15322	SID104200472	-1.27	0.09			
15	CG14282	SID104194555	0.28	0.43			
16	Non1 (Novel nucleolar protein 1)	SID104185746	0.16	-0.55			
17	ND-B14.5B (NADH dehydrogenase (ubiquinone) B14.5 B subunit)	SID104180138	0.39	0.2			
18	Ugt49B2 (UDP-glycosyltransferase family 49 member B2)	SID104195841	0.23	0.14			
19	bero (belly roll)	SID104183003	0.18	0.19			
20	ORY (Occludin-Related Y)	SID104202242	-0.21	0.98			
21	CG43108	SID104185446	0.19	0.5			
22	CG10195	SID104181818	0.22	0.37			
23	Mal-A1 (Maltase A1)	SID104187253	0.33	0.32			
24	CG14561	SID104191514	0.35	0.38			
25	Spec2 (retired record)	SID104192050	0.24	0.18			
26	Spec2 (retired record)	SID104202245	-0.17	-0.25			
27	CG13616	SID104194411	-0.67	0.25			
28	tud (tudor)	SID104184511	-0.05	0.19			
29	CG17264	SID104180292	-0.06	0.25			
30	CG32280	SID104187816	0.53	0.28			
31	Ir64a (Ionotropic receptor 64a)	SID104189551	0.5	0.41			
32	Ir64a (Ionotropic receptor 64a)	SID104189552	0.35	0.31			
33	CG15646	SID104199474	0.21	0.44			
34	ind (intermediate neuroblasts defective)	SID104191147	-1.1	-1.11			
35	CG5139	SID104180473	0.08	0.05			
36	CYTB (retired record)	SID104201064	0.3	-0.25			
37	CG9008	SID104181681	0.35	0.18			

6 of these entries, reformatted.
{"Target gene":"CG43108","PubChem SID":"SID104185446","z-score, replicate 1":0.19,"z-score, replicate 2":0.5}
{"Target gene":"CG10195","PubChem SID":"SID104181818","z-score, replicate 1":0.22,"z-score, replicate 2":0.37}
{"Target gene":"Mal-A1 (Maltase A1)","PubChem SID":"SID104187253","z-score, replicate 1":0.33,"z-score, replicate 2":0.32}
{"Target gene":"CG14561","PubChem SID":"SID104191514","z-score, replicate 1":0.35,"z-score, replicate 2":0.38}
{"Target gene":"Spec2 (retired record)","PubChem SID":"SID104192050","z-score, replicate 1":0.24,"z-score, replicate 2":0.18}
{"Target gene":"Spec2 (retired record)","PubChem SID":"SID104202245","z-score, replicate 1":-0.17,"z-score, replicate 2":-0.25}

Next results follow:
no.	Target gene	PubChem SID	z-score, replicate 1	z-score, replicate 2	z-score, replicate 3	z-score, replicate 4	phenotype, replicate 1
38	PIG-T (Phosphatidylinositol glycan anchor biosynthesis class T)	SID104197566	0.18	0.16			
39	CG16896	SID104184076	0.18	0.12			
40	CG8204	SID104186898	0.24	-0.14			
41	Acox57D-d (acyl-Coenzyme A oxidase at 57D distal)	SID104184353	0.26	0.15			
42	mid (midline)	SID104182769	0.37	0.1	0.25	0.27	
43	mid (midline)	SID104201222	0.14	-0.79			
44	Syt4 (Synaptotagmin 4)	SID104192398	0.2	0.5			
45	CG13506	SID104183942	0.37	0.58			
46	Letm1	SID104184268	-0.45	-0.91			
47	RpS29 + snoRNA:Psi18S-1275	SID104196225	-3.05	-0.36			reduced secretion
48	CG32221	SID104189430	-0.58	0.19			
49	Tnks (tankyrase)	SID104193946	0.63	0.54			
50	CG5623	SID104195640	0.4	-0.08			
51	Atg7 (Autophagy-related 7)	SID104185533	0.44	0.36			
52	Atg7 (Autophagy-related 7)	SID104186729	0.26	0.18			
53	CG7110	SID104182803	0.23	0.16			
54	CG7110	SID104182804	0.21	0.33			
55	CG2839	SID104180336	0.42	0.46			
56	papi	SID104180485	0.58	0.39			
57	DCAF12 (DDB1 and CUL4 associated factor 12)	SID104195267	0.28	0.22			
58	CG14621	SID104200427	0.1	0.07			
59	Tip60 (Tat interactive protein 60kDa)	SID104198453	-0.82	-1.19			
60	Pld (Phospholipase D)	SID104184646	0.15	-0.01			
61	CG15930	SID104197899	0.41	-0.47			
62	aay (astray)	SID104191112	-0.16	0.11			
63	Nepl7 (Neprilysin-like 7)	SID104182287	0.6	0.4	-0.08	0.08	
64	Ldh (Lactate dehydrogenase)	SID104190990	0.25	0.22			
65	Ror	SID104183206	-0.01	0.24			
66	Taf10b + Taf10	SID104180585	0.32	0.34			
67	Dark (Death-associated APAF1-related killer)	SID104185714	0.06	0.21			
68	knk (knickkopf)	SID104195785	0.27	0.31			
69	Atac1 (Ada2a-containing complex component 1)	SID104182947	0.27	0.18			
70	CG12279	SID104194287	0.18	-0.13			
71	dgt3 (dim gamma-tubulin 3)	SID104184141	0.2	0.14			
72	CG14414	SID104199391	0.28	0.6			
73	mRpS6 (mitochondrial ribosomal protein S6)	SID104188262	0.26	0.33			
74	Atg3 (Autophagy-related 3)	SID104190528	-1.23	0.34	0.25	-0.16	
75	Atg3 (Autophagy-related 3)	SID104201426	-0.82	-0.53			
76	Cad96Ca (Cadherin 96Ca)	SID104194012	0.18	0.24			
77	Cad96Ca (Cadherin 96Ca)	SID104196485	0.18	0.29			
78	CG11211	SID104184643	0.2	0.38			
79	Sras (severas)	SID104191079	0.36	0.32			
80	CG11382	SID104198416	0.32	0.23			
81	Isha (Insulator su(Hw) mRNA adaptor)	SID104184248	0.23	-0.05			
82	CG13096	SID104181990	0.13	-0.05			
